From paper PMC6803667, “Binding site plasticity in viral PPxY Late domain recognition by the third WW domain of human NEDD4” (Scientific Reports, 2019)
Results are given in words; binding and its absence hold for the method and conditions named.

Sequences of proteins named here, by UniProt entry; tags and fusion partners are left off. Residues count along the entry.
first WW domain of human YAP2 (YAP-WW1) (P46937, residues 165-209): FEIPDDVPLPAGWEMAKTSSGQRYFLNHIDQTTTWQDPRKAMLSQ
second WW domain of human YAP2 (YAP-WW2) (P46937, residues 228-271): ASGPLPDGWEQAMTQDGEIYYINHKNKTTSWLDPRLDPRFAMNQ

B1: HTLV1ter Late domain peptide (peptide)
peptide: PPPYVEPTAP
modifications: acetylated N-terminus, amidated C-terminus
B2: Rabies Late domain peptide (peptide)
peptide: DLWLPPPEYVPL

Key:
[1] = molecular target: first WW domain of human YAP2 (YAP-WW1) (human) (UniProt P46937); test: ITC; both purified
[2] = molecular target: second WW domain of human YAP2 (YAP-WW2) (human) (UniProt P46937); test: ITC; both purified

| Binder | binding [1] | binding [2] |
| --- | --- | --- |
| B1 | no binding | no binding |
| B2 |  | no binding |
